Some of the results follow.
What was measured:
Test in all cases: glycan array binding signal (z-score within array); higher = stronger binding
Settings in all cases: glycan notation: IUPAC condensed, linker removed
[1] = system: GlcNAc(b1-3)Gal(b1-4)GlcNAc(b1-3)Gal(b1-4)GlcNAc(b1-2)[GlcNAc(b1-3)Gal(b1-4)GlcNAc(b1-3)Gal(b1-4)GlcNAc(b1-6)]Man(a1-6)[GlcNAc(b1-3)Gal(b1-4)GlcNAc(b1-3)Gal(b1-4)GlcNAc(b1-2)Man(a1-3)]Man(b1-4)GlcNAc(b1-4)[Fuc(a1-6)]GlcNAc
Outline: (§1)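 The binding signal is a Z-score computed within each array and averaged over linkers. Arrays of the same protein sequence at different concentrations or buffers were also averaged together. Data originate from 3228 arrays in the Consortium for Functional Glycomics database, kept only where the protein sequence was available.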

[2] = system: GlcNAc(b1-3)Gal(b1-4)GlcNAc(b1-3)Gal(b1-4)GlcNAc(b1-3)Gal(b1-4)GlcNAc(b1-2)Man(a1-3)[GlcNAc(b1-3)Gal(b1-4)GlcNAc(b1-3)Gal(b1-4)GlcNAc(b1-3)Gal(b1-4)GlcNAc(b1-2)Man(a1-6)]Man(b1-4)GlcNAc(b1-4)GlcNAc
Outline: as §1

[3] = system: GlcNAc(b1-3)Gal(b1-4)GlcNAc(b1-3)Gal(b1-4)GlcNAc(b1-3)Gal(b1-4)GlcNAc(b1-2)Man(a1-3)[GlcNAc(b1-3)Gal(b1-4)GlcNAc(b1-3)Gal(b1-4)GlcNAc(b1-3)Gal(b1-4)GlcNAc(b1-2)Man(a1-6)]Man(b1-4)GlcNAc(b1-4)[Fuc(a1-6)]GlcNAc
Outline: as §1

[4] = system: GlcNAc(b1-3)Gal(b1-4)GlcNAc(b1-3)Gal(b1-4)GlcNAc(b1-3)Gal(b1-4)GlcNAc(b1-2)[GlcNAc(b1-3)Gal(b1-4)GlcNAc(b1-3)Gal(b1-4)GlcNAc(b1-3)Gal(b1-4)GlcNAc(b1-6)]Man(a1-6)[GlcNAc(b1-3)Gal(b1-4)GlcNAc(b1-3)Gal(b1-4)GlcNAc(b1-3)Gal(b1-4)GlcNAc(b1-2)Man(a1-3)]Man(b1-4)GlcNAc(b1-4)[Fuc(a1-6)]GlcNAc
Outline: as §1

[5] = system: GlcNAc(b1-3)Gal(b1-4)GlcNAc(b1-3)Gal(b1-4)GlcNAc(b1-3)Gal(b1-4)GlcNAc(b1-3)Gal(b1-4)GlcNAc(b1-2)Man(a1-3)[GlcNAc(b1-3)Gal(b1-4)GlcNAc(b1-3)Gal(b1-4)GlcNAc(b1-3)Gal(b1-4)GlcNAc(b1-3)Gal(b1-4)GlcNAc(b1-2)Man(a1-6)]Man(b1-4)GlcNAc(b1-4)GlcNAc
Outline: as §1

[6] = system: GlcNAc(b1-3)Gal(b1-4)GlcNAc(b1-3)Gal(b1-4)GlcNAc(b1-3)Gal(b1-4)GlcNAc(b1-3)Gal(b1-4)GlcNAc(b1-2)Man(a1-3)[GlcNAc(b1-3)Gal(b1-4)GlcNAc(b1-3)Gal(b1-4)GlcNAc(b1-3)Gal(b1-4)GlcNAc(b1-3)Gal(b1-4)GlcNAc(b1-2)Man(a1-6)]Man(b1-4)GlcNAc(b1-4)[Fuc(a1-6)]GlcNAc
Outline: as §1

[7] = system: GlcNAc(b1-3)Gal(b1-4)GlcNAc(b1-3)Gal(b1-4)GlcNAc(b1-3)Gal(b1-4)GlcNAc(b1-3)Gal(b1-4)GlcNAc(b1-2)[GlcNAc(b1-3)Gal(b1-4)GlcNAc(b1-3)Gal(b1-4)GlcNAc(b1-3)Gal(b1-4)GlcNAc(b1-3)Gal(b1-4)GlcNAc(b1-6)]Man(a1-6)[GlcNAc(b1-3)Gal(b1-4)GlcNAc(b1-3)Gal(b1-4)GlcNAc(b1-3)Gal(b1-4)GlcNAc(b1-3)Gal(b1-4)GlcNAc(b1-2)Man(a1-3)]Man(b1-4)GlcNAc(b1-4)[Fuc(a1-6)]GlcNAc
Outline: as §1

[8] = system: GlcNAc(b1-3)Gal(b1-4)GlcNAc(b1-3)Gal(b1-4)GlcNAc(b1-3)GalNAc
Outline: as §1

[9] = system: GlcNAc(b1-3)Gal(b1-4)GlcNAc(b1-3)Gal(b1-4)GlcNAc
Outline: as §1

[10] = system: GlcNAc(b1-3)Gal(b1-4)GlcNAc(b1-3)GalNAc
Outline: as §1

[11] = system: GlcNAc(b1-3)Gal(b1-4)GlcNAc(b1-3)[GlcNAc(b1-3)Gal(b1-4)GlcNAc(b1-3)]GalNAc
Outline: as §1

[12] = system: GlcNAc(b1-3)Gal(b1-4)GlcNAc(b1-6)[Gal(b1-3)]GalNAc
Outline: as §1

[13] = system: GlcNAc(b1-3)Gal(b1-4)GlcNAc(b1-6)[GlcNAc(b1-3)Gal(b1-3)]GalNAc
Outline: as §1

[14] = system: GlcNAc(b1-3)Gal(b1-4)GlcNAc(b1-6)[GlcNAc(b1-3)]Gal(b1-4)GlcNAc
Outline: as §1

[15] = system: GlcNAc(b1-3)Gal(b1-4)GlcNAc
Outline: as §1

[16] = system: GlcNAc(b1-3)Gal(b1-4)Glc
Outline: as §1

[17] = system: GlcNAc(b1-3)GalNAc
Outline: as §1

[18] = system: GlcNAc(b1-3)Gal
Outline: as §1

[19] = system: GlcNAc(b1-3)Man
Outline: as §1

[20] = system: GlcNAc(b1-3)[GlcNAc(b1-4)][GlcNAc(b1-6)]GlcNAc
Outline: as §1

[21] = system: GlcNAc(b1-3)[GlcNAc(b1-6)]Gal(b1-4)GlcNAc
Outline: as §1

[22] = system: GlcNAc(b1-3)[GlcNAc(b1-6)]GalNAc
Outline: as §1

[23] = system: GlcNAc(b1-4)Gal(b1-4)GlcNAc
Outline: as §1

[24] = system: GlcNAc(b1-4)GlcNAc(b1-4)GlcNAc(b1-4)GlcNAc(b1-4)GlcNAc(b1-4)GlcNAc
Outline: as §1

[25] = system: GlcNAc(b1-4)GlcNAc(b1-4)GlcNAc(b1-4)GlcNAc(b1-4)GlcNAc
Outline: as §1

[26] = system: GlcNAc(b1-4)GlcNAc(b1-4)GlcNAc
Outline: as §1

[27] = system: GlcNAc(b1-4)GlcNAc
Outline: as §1

[28] = system: GlcNAc(b1-4)[GlcNAc(b1-6)]GalNAc
Outline: as §1

[29] = system: GlcNAc(b1-6)Gal(b1-4)GlcNAc
Outline: as §1

[30] = system: GlcNAc(b1-6)GalNAc
Outline: as §1

[31] = system: GlcNAc6S(b1-3)Gal(b1-4)GlcNAc
Outline: as §1

[32] = system: Kdn(a2-3)Gal(b1-3)GalNAc
Outline: as §1

In the case of MpAFP RI GFP (Marinomonas primoryensis), the “glycan array binding signal (z-score)” value [1] is reported as 1.29, the “glycan array binding signal (z-score)” value [2] is reported as 4.26 and the “glycan array binding signal (z-score)” value [3] is reported as 1.84. The “glycan array binding signal (z-score)” value [4] was 1.39, the “glycan array binding signal (z-score)” value [5] was 0.132 and the “glycan array binding signal (z-score)” value [6] was 0.427. For the same substance, the “glycan array binding signal (z-score)” value [7] was 0.136, the “glycan array binding signal (z-score)” value [8] was -0.564 and the “glycan array binding signal (z-score)” value [9] was -0.728. For the same substance, the “glycan array binding signal (z-score)” value [10] was -0.309, the “glycan array binding signal (z-score)” value [11] was -0.155 and the “glycan array binding signal (z-score)” value [12] was -0.32. The “glycan array binding signal (z-score)” value [13] was 0.044, the “glycan array binding signal (z-score)” value [14] was -0.702 and the “glycan array binding signal (z-score)” value [15] was -0.815. The “glycan array binding signal (z-score)” value [16] was -0.605, the “glycan array binding signal (z-score)” value [17] was -0.403 and the “glycan array binding signal (z-score)” value [18] was -0.51. The “glycan array binding signal (z-score)” value [19] was 0.335, the “glycan array binding signal (z-score)” value [20] was -0.643 and the “glycan array binding signal (z-score)” value [21] was -0.582. The “glycan array binding signal (z-score)” value [22] was -0.199, the “glycan array binding signal (z-score)” value [23] was 0.896 and the “glycan array binding signal (z-score)” value [24] was -0.527. For the same substance, the “glycan array binding signal (z-score)” value [25] was 1.56, the “glycan array binding signal (z-score)” value [26] was -0.623 and the “glycan array binding signal (z-score)” value [27] was 2. For the same substance, the “glycan array binding signal (z-score)” value [28] was -0.334, the “glycan array binding signal (z-score)” value [29] was 0.096 and the “glycan array binding signal (z-score)” value [30] was -0.628. The “glycan array binding signal (z-score)” value [31] was 0.068 and the “glycan array binding signal (z-score)” value [32] was 0.271.

— the supplement of paper PMC8728848
